PubChem BioAssay AID2284357 (EPA ToxCast)
This list was built around the results that the source calls inconclusive (neither active nor inactive); the mix of calls is not that of the screen. Where the call is inconclusive, the potency comes from a doubtful curve fit. Active and inactive are the calls of the source. Rule for the calls: active = hit-call score of the fitted dose curve at least 0.9, where 1 is the maximum; inconclusive = response in the unintended direction; inactive = score below 0.9.

System: zebrafish Androgen Receptor (AR), gene 100005148
Experiment: ATG_zfAR_EcoTox2: Attagene TRANS-FACTORIAL EcoTox-2 HepG2 Assay for zebrafish Androgen Receptor (AR)
Method: ATG_EcoTox2 is a cell-based, multiplexed assay created by modifying the existing Attagene TRANS-FACTORIAL system to include a panel of nuclear receptors from some or all the following species: human (Homo sapiens), african clawed frog (Xenopus laevis), rainbow trout (Oncorhynchus mykiss), japanese medaka (Oryzias latipes), and zebrafish (Danio rerio). The ECOTOX2-FACTORIAL format uses HepG2, a human liver cell line, with measurements taken at 24 hours after chemical dosing in a 24-well plate. ATG_zfAR_EcoTox2 is one of 29 assay components calculated in the ATG_EcoTox2 assay. It is designed to make measurements of mRNA induction, a form of inducible reporter, as detected with fluorescence intensity signals by Reverse transcription polymerase chain reaction (RT-PCR) and Capillary electrophoresis technology.The assay endpoint ATG_zfAR_EcoTox2 was analyzed in the positive analysis fitting direction relative to DMSO as the negative control and baseline of activity. Using a type of inducible reporter, measures of mRNA for gain-of-signal activity can be used to understand the reporter gene at the transcription factor-level as they relate to the gene AR. Furthermore, this assay endpoint can be referred to as a primary readout, because this assay has produced multiple assay endpoints where this one serves a reporter gene function. To generalize the intended target to other relatable targets, this assay endpoint is annotated to the nuclear receptor intended target family, where the subfamily is steroidal.
Human liver HepG2 cells are transiently transfected with multiple reporter transcription units (MRTUs) in 6-well plates using FuGene 6 reagent (Roche; 3 ml FuGene/1 mg DNA). The MRTU constructs are regulated by a cis-regulating element (promoter). Each RTU expresses a GAL4-UAS that regulates the transcription of a nearby target reporter gene sequence. A major difference between the CIS and TRANS system is that in CIS activities of endogenous TFs are measured, whereas the TRANS assay evaluates changes in activities of exogenous, chimeric NR-Gal4 proteins. […] At the end of 24 hour incubation, total RNA was isolated using TriZol reagent (Invitrogen). The isolated RNA is then reverse-transcribed using oligo(dT) primer and Mo-MLV reverse transcriptase (Invitrogen) with DNAse I (Ambion) treatment for 30 min. The one-tenth of the produced cDNA was amplified by PCR using Taq DNA polymerase (Invitrogen) and two reporter sequence-specific primers. The PCR products were fluorescently labeled by primer extension with 6-arboxyfluorescein (6-FAM) 5'-labeled reporter sequence-specific primer (2 min at 95 C, 20 s at 68 C and 10 min at 72 C) and these products were digested with 5U of HpaI (New England Biolabs) for 2h at 37 C. The fragments were purified using Qiaquick PCR columns (Qiagen), analyzed on an ABI 3130xL genetic analyzer (Applied Biosystems) with peak positions identified by using a set of X-rhodamine (ROX)-labeled MapMarker1000 molecular weight standards (BioVentures). The raw capillary electrophoresis data was processed using Attagraph software (Attagene).

SMILES	AC50	outcome
CC(C)(Oc1ccc(CCNC(=O)c2ccc(Cl)cc2)cc1)C(=O)O	inconclusive: 100 µM	–
CN(CCOc1ccc(CC2SC(=O)NC2=O)cc1)c1ccccn1 (stereo unspecified)	inconclusive: 2.24 µM	–
CC(c1cc2ccccc2s1)N(O)C(N)=O (stereo unspecified)	–	inactive
Cc1nc(-c2ccc(C(F)(F)F)cc2)sc1C(=O)NCc1ccc(OC(C)(C)C(=O)O)cc1	inconclusive: 0.198 µM	–
Cc1c(C)c2c(c(C)c1O)CCC(C)(COc1ccc(CC3SC(=O)NC3=O)cc1)O2 (stereo unspecified)	inconclusive: 5.65 µM	–
C=C(c1ccc(C(=O)O)cc1)c1cc2c(cc1C)C(C)(C)CCC2(C)C	–	inactive
